Data taken from patent US20250345383A1, “INTRANASAL ADMINISTRATION OF POLYSULFIDE” (The General Hospital Corporation, priority 2022, published 2025).
For at least one compound, name, drawing or mass did not settle the structure.

Legend:
mice subjected to SCI = assay: Mouse model of spinal cord ischemia (SCI): delayed paraplegia, hindlimb motor function by Basso mouse scale (BMS); type: in vivo; settings: median [interquartile range]
primary cortical neurons = assay: Cytotoxic effect of GSSSG on cell viability (LDH assay); type: cell-based, mouse; settings: GSSSG 100 μM, 21 hours; vehicle alone 105 [85-110]%; median [interquartile range]
[1] = LC-MS/MS of ^34S-labeled GSSSG and sulfane sulfur species in CNS and plasma after intranasal GS^34SSG; type: in vivo, mouse; settings: 30 minutes after intranasal 50 mg/kg GS^34SSG; median [interquartile range]
Description: We used LC-MS/MS analysis to measure the amount of ^34S-labeled GSSSG ([^32S2, ^34S]GSSSG) in the CNS and plasma after intranasal administration of GS^34SSG, an isotope of endogenous GSSSG^9,35,36. The ratios of ^34S-labeled sulfane sulfur species ([^32S, ^34S]GSSH, [^32S, ^34S]cysteine hydropersulfide (CysSSH), and [^32S2, ^34S]cysteine trisulfide (CysSSSCys)) to endogenous sulfane sulfur species ([^32S2]GSSH, [^32S2]CysSSH, and […]) were also quantitatively evaluated. […] The amount of [^32S2, ^34S]GSSSG was quantified in selective reaction monitoring (SRM) with precursor ion (647.14 m/z), product ion (389.1 m/z), and higher energy collisional dissociation (21 v). The ratios of [^32S, ^34S]GSSH to [^32S2]GSSH, [^32S, ^34S]CysSSH to [^32S2]CysSSH, and [^32S2, ^34S]CysSSSCys to [^32S3]CysSSSCys were calculated from their peak area measured by Dionex UltiMate 3000 RS UPLC-Orbitrap Exploris 480 mass spectrometer (Thermo Fisher Scientific, Waltham, MA, USA). […] The raw data were analyzed by Compound Discoverer 3.3 software (Thermo Fisher Scientific, Waltham, MA, USA). The molecular weights of these sulfane sulfur species combined with HPE-IAM were determined based on previous reports^9,11,37.

MPTP-treated mice = assay: MPTP-induced Parkinson's disease model in mice (tyrosine hydroxylase immunoblot); type: in vivo, mouse; settings: breathing air mixed with 80 ppm H2S 4 h each day for 5 consecutive days before MPTP (sulfide preconditioning)
Description: Intermittent H2S Inhalation—Sulfide Pre-Conditioning (SPC) We previously reported that breathing H2S at 80 ppm markedly increases plasma and brain levels of H2S and thiosulfate, an oxidative product of H2S.^50,51 Male C57BL6/J mice breathed air alone and air mixed with 80 ppm H2S (Airgas Inc., Radnor, PA) for 4 h each day for 5 consecutive days in custom-made plastic chambers. The H2S breathing session was performed from 8 AM until 12 PM from Day 1 through Day 5 as previously described^51 (FIG. 1). H2S concentration, as well as FiO2, was continuously measured using a portable gas monitor (VENTIS MX4 Multi-Gas Monitor, Industrial Scientific Corporation, Oakdale. PA).
Male C57BL6/J and CD-1 mice received four intraperitoneal injections of MPTP (20 mg/kg) or saline every 2 h for a total of four doses of MPTP (total, 80 mg/kg) or equivalent amount of saline, as previously described 3. […] Then, tyrosine hydroxylase protein levels were detected by immunoblotting.
To determine the effects of polysulfide on the loss of tyrosine hydroxylase in the substantia nigra and striatum in mice treated with MPTP, we administered GSSSG (50 mg/kg) or saline via intranasal route immediately after the first and the third injection of MPTP on Day 0. […] Then, tyrosine hydroxylase protein levels were detected by immunoblotting.

SH-SY5Y cells = assay: Cytotoxic effect of PTN-SSS on cell viability (crystal violet assay); type: cell-based, human; settings: PTN-SSS 100 μM, 24 hours; vehicle alone 1.00±0.25; mean with SD

N[C@@H](CCC(=O)N[C@@H](CSSSC[C@H](NC(=O)CC[C@H](N)C(=O)O)C(=O)NCC(=O)O)C(=O)NCC(=O)O)C(=O)O [GSSSG, glutathione trisulfide]
BMS score at 72 hours after surgery (mice subjected to SCI; GSSSG vs GSSG comparison, male mice, n=6 per group, intranasal GSSSG 50 mg/kg, GSSG 53 mg/kg): 8.0 [5.2-9.0]
BMS score at 72 hours after surgery (mice subjected to SCI; female mice, n=8 per group, intranasal GSSSG 50 mg/kg or GSH 45.2 mg/kg at 0, 8, 23, 32 hours, vehicle 0.0 [0.0-0.0]): 6.5 [1.5-9.0]
BMS score at 72 hours after surgery (mice subjected to SCI; male mice, n=11 per group, intranasal GSSSG 50 mg/kg or GSH 45.2 mg/kg at 0, 8, 23, 32 hours, vehicle 0 [0-0]): 9 [4-9]
LDH release (primary cortical neurons): 149 [133-159] %

N[C@@H](CCC(=O)N[C@@H](CS[34S]SC[C@H](NC(=O)CC[C@H](N)C(=O)O)C(=O)NCC(=O)O)C(=O)NCC(=O)O)C(=O)O [GS^34SSG]
ratio of [^32S, ^34S]CysSSH to [^32S2]CysSSH in brain and spinal cord [1]: 10.6 [9.8-12.5]

S [H2S, Hydrogen sulfide, reference compound]
loss of dopaminergic neurons and movement disorder induced by MPTP (MPTP-treated mice): protected mice from loss of dopaminergic neurons and movement disorder

CC(C)(CO)[C@@H](O)C(=O)NCCC(=O)NCCSSSCCNC(=O)CCNC(=O)[C@H](O)C(C)(C)CO [PTN-SSS, pantethine trisulfide]
cell viability, crystal violet assay (relative to vehicle) (SH-SY5Y cells): 0.59 z 0.21
BMS score at 72 hours after surgery (mice subjected to SCI; PTN-SSS study, male mice, n=9 per group, intranasal PTN-SSS 50 mg/kg or PTN 47.3 mg/kg, vehicle 1.0 [0.0-1.5]): 7.0 [1.5-9.0]
